Tested on: misfolded Aβ dimers
Assay: Contour length analysis of interacting segments within Aβ dimers
Assay type: binding, human
Conditions: for contour length, major contribution / maximum: Supplementary Figs. S3a-S5a, loading rate not given
Text: We used the contour length measurements to identify segments of the peptides involved in dimer formation. The measured contour length is comprised of the length of the flexible tethers used for peptide immobilization and the length of the segment of the peptide from the anchoring point to the rupture position. The latter, according to the schematic in Fig. 1, was obtained by subtracting the lengths of all linkers from the measured contour lengths.
Probing interactions of Aβ peptides within a dimer by SMFS provides a pattern of peptide interactions within the dimers. According to the immobilization procedure, the peptide is covalently bound at its N−terminal cysteine. The experimentally measured contour length consists of two major components, the lengths of the flexible tethers used for peptide immobilization and the length of the peptide segment between the N−terminus and the segment of the peptide involved in interpeptide interactions. Therefore, the position of the peak on the force−distance curve is defined by the peptide length between the N−terminus and the interacting segment. […] The closer the interacting segment is to the N−terminus, the shorter the contour length will be when measured by AFM. […] The contour length of PEG 3400 was estimated to be 22.0 ± 0.9 nm[28]. Lengths of both aminopropyl silatrane (APS) and MAS were ~ 2.5 nm[13]. Therefore, the total length of all linkers was 24.5 ± 0.9 nm. In addition, the distance between N−termini of two peptides was estimated to be 1.0 nm.
All cysteinyl−Aβ peptides were synthesized using 9−fluorenylmethoxycarbonyl (FMOC) chemistry and purified by reverse phase high performance liquid chromatography (RP−HPLC). The identity and purity (usually > 97%) of the peptides were confirmed by amino acid analysis followed by mass spectrometry and RP−HPLC. Functionalization of AFM tips and mica substrates were prepared according to previously published procedures. Briefly, 20 nM Aβ monomers were immobilized on mica functionalized with aminopropyl silatrane (APS) via PEG 3400 tethers and on AFM tips through maleimide silatrane (MAS). For DFS study, the tip retraction speeds ranged from 100 nm/s to 4000 nm/s. The dwell time was set at 0.3 s when retraction speed reached 1000 nm/s and above. Force curves with rupture event were subject to WLC analysis, as shown below. [drawing 1] Rupture force distributions were fitted with a probability density function: [drawing 2] Dynamic force spectra were fitted with Bell−Evans model[21]: [drawing 3] The energy profiles were reconstructed according to previous papers, using the equation below. [drawing 4] Positions of interacting segments of Aβ monomers within dimers were estimated by subtracting from the measured contour lengths the lengths of all linkers and the distance between N−termini of monomers (see Fig. 1a). The contour length of PEG was estimated with the following equation[28]: [drawing 5] Where Lc(F) is the contour length, Ns is the average number of monomers, Lplanar is the length of monomers with planar conformation, Lhelical is the length of monomers with helical conformation, ΔG(F) is the free energy difference at zero appling force. The Ns is 77 ± 10 for 3400 Da PEG. The Lplanar and Lhelical are 3.58 Å and 2.8 Å, respectively. The ΔG(F) is fixed at 3 kBT. The contour length of PEG was thus estimated to be 22.0 ± 0.9 nm. All error bars represent SEM. Detailed methods can be found in Supplementary Information.

[1] = loading rates of 5000−7000 pN/s, WLC fit, includes linkers
[2] = contour length minus linkers, converted to residues, Fig. 5a

Aβ42: alloform of human amyloid β−protein with two additional C−terminal residues; cysteinyl−peptide
contour length, major contribution / maximum (includes linkers): ~ 56 nm

[VPV]Aβ40: Aβ40 mutant with VPV substitutions (Gly33Val−Val36Pro−Gly38Val); cysteinyl−peptide
contour length, major data cluster [1]: ~ 42 nm | contour length, minor data cluster [1]: ~ 33 nm | contour length, second (comparable) data cluster [1]: ~ 57 nm | contour length at which doubled rupture forces occur (scatter plot Fig. 4c, loading rates of 5000−7000 pN/s): ~ 32 nm

Aβ40: alloform of human amyloid β−protein; cysteinyl−Aβ peptide, Cys residue placed at the N−terminus
length of N-terminal segment, peak 2 [2]: ~ 20 residues | length of N-terminal segment, peak 3 [2]: ~35 residues | contour length, major data cluster [1]: around 33 nm

[VPV]Aβ42: Aβ42 with VPV substitutions (Gly33Val−Val36Pro−Gly38Val); cysteinyl−peptide
contour length, major contribution / maximum (includes linkers): ~ 42 nm
